Data from patent US20260275412A1, “A GENE SIGNATURE FOR DIAGNOSING STIMULATOR OF INTERFERON GENES (STING)-ASSOCIATED VASCULOPATHY WITH ONSET IN INFANCY (SAVI)” (INSTITUT NATIONAL DE LA SANTÉ ET DE LA RECHERCHE MÉDICALE, priority 2023, published 2026).
At least one structure is not confirmed: it was looked up by name or label, or the drawing left a doubt.

What was measured:
SAVI patients = SAVI patients treated with JAK-inhibitors; cited from earlier work
STING = assay: in vitro model of STING activation: PBMCs with ADUS100 with or without JAK-inhibitor, scRNA-seq; assay type: cell-based, human; settings: JAK-inhibitor (baricitinib 10 mM, 15 min pre-incubation) added to ADUS100 stimulation
From the text: Sequencing reads were demultiplexed and aligned to the human reference genome (hg38), and counted using the CellRanger Pipeline v6.0. Unfiltered RNA UMI counts were loaded into Seurat v4 for quality control, data integration and downstream analyses. Apoptotic cells and empty sequencing capsules were excluded by filtering out cells with low number of features (Filters were defined based on the batch: STING1: nFeature <300; STING2 and STING3<500; IFN-stim <750) or a mitochondrial content higher than 20%. Data from each sample were normalized using sctransform, before batch correction using Seurat's FindIntegratedAnchors, on the 3,000 most variable features. For the IFN-β dataset, for computational efficiency, integration anchors were determined with a canonical correlation analysis, using all unstimulated samples as reference. For the SAVI dataset, to avoid over-aligning samples, a reciprocal principal component analysis (PCA) was used to find integration anchors. […] Transcriptomic signatures scores were calculated using Seurat's AddModuleScore function. […]
Human PBMC samples were obtained from Promocell (C-12907 promocell, lot 434Z036). […] Libraries were sequenced on a Novaseq (Illumina), with 26 cycles of read 1, 8 cycles of i7 index and 98 cycles of read 2. […]

N#CC[C@H](C1CCCC1)n1cc(-c2ncnc3[nH]ccc23)cn1 [Ruxolitinib, ruxolitinib]
symptoms of SAVI patients (SAVI patients): partial improvements of the symptoms

CCS(=O)(=O)N1CC(CC#N)(n2cc(-c3ncnc4[nH]ccc34)cn2)C1 [Baricitinib, baricitinib]
score of NF-κB activation (STING): controlled
score of type I IFN response (STING): controlled
symptoms of SAVI patients (SAVI patients): partial improvements of the symptoms
